Measured values: patent US20100076068A1, “Aminoalcohol Derivatives and Their Therapeutic Use” (priority 2006, published 2010)
Some entries share one result that the patent states for a list of compounds.

The compounds below were run on intraplantar carrageenan-induced paw oedema (assay: Carrageenan paw oedema assay). Conditions: male Wistar rats, oral gavage, half an hour before 2% carrageenan; paw volume AUC 1-5 hours versus vehicle control.
Type: in vivo, rat

Which “anti-inflammatory effect against intraplantar carrageenan-induced paw oedema (inhibition of paw volume)” value does the source give for `CC(C)C(=O)O[C@@H](c1cccc(Cl)c1)[C@H](C)NC(C)(C)C` [Example 2, (+)-(erythro)-Isobutyric acid 2-tert-butylamino-1-(3-chloro-phenyl)-propyl ester] here?
The value was “showed an anti-inflammatory effect”.

`C[C@H](NC(C)(C)C)[C@@H](OC(=O)C1CCOCC1)c1cccc(Cl)c1` [Example 4, (+)-(erythro)-Tetrahydropyran-4-carboxylic acid 2-tert-butylamino-1-(3-chloro-phenyl)-propyl ester] was tested. Which “anti-inflammatory effect against intraplantar carrageenan-induced paw oedema (inhibition of paw volume)” value did it give?
Its value is “showed an anti-inflammatory effect”.

Which “anti-inflammatory effect against intraplantar carrageenan-induced paw oedema (inhibition of paw volume)” value does the source give for `CC(=O)O[C@@H](c1cccc(Cl)c1)[C@H](C)NC(C)(C)C` [Example 1, (+)-(erythro)-Acetic acid 2-tert-butylamino-1-(3-chloro-phenyl)-propyl ester] here?
The value was “showed an anti-inflammatory effect”.

Which “anti-inflammatory effect against intraplantar carrageenan-induced paw oedema (inhibition of paw volume)” value does the source give for `COCCC(=O)O[C@@H](c1cccc(Cl)c1)[C@H](C)NC(C)(C)C` [Example 3, (+)-(erythro)-3-Methoxy-propionic acid 2-tert-butylamino-1-(3-chloro-phenyl)-propyl ester] here?
The value was “showed an anti-inflammatory effect”.
